{
  "source": "paper PMC6482174",
  "about": "“Fragment-based screening identifies inhibitors of ATPase activity and of hexamer formation of Cagα from the Helicobacter pylori type IV secretion system” (Scientific Reports, 2019)",
  "key": {"Cagα oligomers": {"tested_on": "Cagα oligomers", "test": "Chemical cross-linking with DSS, SDS-PAGE and western blot", "set-up": "species or system Helicobacter pylori", "settings": "with MgCl2"}, "Cagα hexamer": {"tested_on": "Cagα hexamer", "test": "Analytical gel filtration (Superdex 200)", "set-up": "species or system Helicobacter pylori", "settings": "for Effect on the Cagα hexamer: gel filtration and EM"}, "Cagα": {"tested_on": "Cagα", "settings": "apoprotein Tm 37 °C"}, "[1]": {"settings": "Cagα pre-incubated with 2 mM molecule 30 min, apoprotein 244 kDa"}, "[2]": {"settings": "Cagα pre-incubated with 2 mM molecule, apoprotein 1.74 ml"}},
  "note": "“And” between values parts separate entries of the source, which are not always exact repeats. Equal values may be shown once. Read-outs that look alike come from different tables or passages of the source.",
  "data": [
    {"compound": "O=C(O)c1ccc(Oc2ccccn2)cc1", "note": "[1G2]", "values": [
      {"measurement": "Formation of higher molecular mass cross-linking products", "setting": "Cagα oligomers", "value": "reduced amount of higher molecular mass complexes"},
      {"measurement": "Apparent molecular mass, peak A", "setting": "Cagα hexamer; [1]", "value": "175 kDa and 175.5 kDa"},
      {"measurement": "Apparent molecular mass, peak B", "setting": "Cagα hexamer; [1]", "value": 54, "unit": "kDa"},
      {"measurement": "Elution Volume, peak A", "setting": "Cagα hexamer; [2]", "value": 1.83, "unit": "mL"},
      {"measurement": "Elution Volume, peak B", "setting": "Cagα hexamer; [2]", "value": 2.14, "unit": "mL"},
      {"measurement": "Effect on the Cagα hexamer", "setting": "Cagα hexamer", "value": "dissociates the Cagα hexamer into lower molecular mass species"}
    ]},
    {"compound": "Nc1ncnc2c1ncn2[C@@H]1O[C@H](COP(=O)(O)OP(=O)(O)O)[C@@H](O)[C@H]1O", "note": "[ADP]", "values": [
      {"measurement": "Formation of higher molecular mass cross-linking products", "setting": "Cagα oligomers", "value": "increased amounts of higher molecular mass products"}
    ]},
    {"compound": "Nc1ncnc2c1ncn2[C@@H]1O[C@H](CO[P@](=O)(O)O[P@](=O)(O)O[P@@](=O)(O)S)[C@@H](O)[C@H]1O", "note": "[ATP-γ-S, reference compound]", "values": [
      {"measurement": "Formation of higher molecular mass cross-linking products", "setting": "Cagα oligomers", "value": "reduced amount of higher molecular mass complexes"},
      {"measurement": "Elution Volume, single peak", "setting": "Cagα hexamer; [2]", "value": 1.74, "unit": "mL"},
      {"measurement": "MW, single peak", "setting": "Cagα hexamer; Cagα pre-incubated with 2 mM molecule, apoprotein 244.1 kDa", "value": 244.1, "unit": "kDa"},
      {"measurement": "Effect on the Cagα hexamer", "setting": "Cagα hexamer", "value": "does not dissociate the hexamer"},
      {"measurement": "Melting temperature (Tm) of Cagα", "setting": "Cagα; Cagα with MgCl2 and the nucleotide, nucleotides 5 mM", "value": 60, "unit": "°C"}
    ]},
    {"compound": "[Cl-].[Cl-].[Mg+2]", "note": "[MgCl2]", "values": [
      {"measurement": "Melting temperature (Tm) of Cagα", "setting": "Cagα; Cagα and metal cofactor MgCl2", "value": 42, "unit": "°C"}
    ]}
  ]
}
